The list does not hold the whole screen: it is rich in T/C values a quarter to a half above the control, in often repeated tests (any T/C) and in doses without a T/C. Further doses and runs are listed elsewhere. T/C: endpoint of the treated group in % of that of the vehicle group. Some doses have a count of surviving animals in place of a T/C: the source holds a T/C of zero for them, seemingly a mark for toxic or unscored doses. Some survivor counts are full or nearly so, which does not show that the dose was tolerated: the source hardly ever lists a survival T/C far under the control, and the zero likely stands for such cases as well. Survivors were counted at the toxicity check, usually on the fifth day, unless a day is given; later deaths do not show. Schedule codes are those of the source, read here as Q, the interval in days (D) or hours (H), X, the number of doses. For survival time, the PubChem record calls one and a half times the control and up active, and a quarter to a half above the control has no call in these data; cut-offs in other NCI protocols can differ. Some T/C values carry the count of animals alive at the toxicity check (mostly the fifth day); where none is given, no animal had died by that day. Some entries were tested several times; the values are given in rising order.
System: CD2F1 mice, L1210 leukemia ip, survival T/C
Test: NCI In Vivo Anticancer Drug Screen. Data for tumor model L1210 Leukemia (intraperitoneal) in CD2F1 (CDF1) mice
Settings: higher T/C = longer survival
How it was run: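 Mice carrying a transplanted tumor received test compound or vehicle alone. The value is the measurement in the treated group divided by that in the vehicle-treated control group.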

[1] = T/C endpoint: mean survival time, dose: 400.0 mg/kg/injection, schedule: Q01DX009 (ip), vehicle: saline

`C=CCOCC1CO1` (configuration not stated) was tested. Which T/C [1] did it give?
Its T/C is 127 % of control [4 of 6 alive].

What about the survivor count [1] of the same compound?
Its survivor count is 1 of 6.

How did the survivor count (T/C endpoint: mean survival time, dose: 200.0 mg/kg/injection, schedule: Q04DX003 (ip), vehicle: other) turn out when `NC(=S)Nc1ccc([N+](=O)[O-])cc1` was run?
Its survivor count is 3 of 6.

What about the survivor count (T/C endpoint: mean survival time, dose: 400.0 mg/kg/injection, schedule: Q04DX003 (ip), vehicle: other) of the same compound?
Its survivor count is 0 of 6.

With `Cc1ccc(S(=O)(=O)SCc2ccccc2)cc1` as the compound, how does the survivor count (T/C endpoint: mean survival time, dose: 400.0 mg/kg/injection, schedule: Q01DX009 (ip), vehicle: other) read?
The survivor count was 0 of 6.

What does the source list for `NC(=S)c1ncnc2c1ncn2C1OC(CO)C(O)C1O` (configuration not stated)?
T/C (T/C endpoint: median survival time, dose: 140.0 mg/kg/injection, schedule: Q01DX005 (ip), vehicle: water): 126 and 135 % of control [5 of 6 alive]; survivor count (T/C endpoint: median survival time, dose: 280.0 mg/kg/injection, schedule: Q01DX005 (ip), vehicle: water): 1 of 6

Which results are given for `O=S(=O)(O)O.[NH-]C(c1ccccc1)C([NH-])c1ccccc1.[Pt+2]` (configuration not stated)?
T/C (T/C endpoint: mean survival time, dose: 6.25 mg/kg/injection, schedule: Q04DX003 (ip), vehicle: saline with Tween-80): 131 % of control; T/C (T/C endpoint: mean survival time, dose: 12.5 mg/kg/injection, schedule: Q04DX003 (ip), vehicle: saline with Tween-80): 134 and 148 % of control [5 of 6 alive]; T/C (T/C endpoint: mean survival time, dose: 25.0 mg/kg/injection, schedule: Q04DX003 (ip), vehicle: saline with Tween-80): 146 % of control

How did the survivor count (T/C endpoint: mean survival time, dose: 200.0 mg/kg/injection, schedule: Q04DX002 (ip), vehicle: saline) turn out when `CNC` was run?
Its survivor count is 3 of 3.

And the survivor count (T/C endpoint: mean survival time, dose: 400.0 mg/kg/injection, schedule: Q04DX002 (ip), vehicle: saline)?
Its survivor count is 3 of 3.
